Out of some 52,000 sequences screened, about 210 (0.4%) were called active.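 How the source made its calls: active means gene whose silencing raises cell survival under the drug, median off-target-corrected z-score across its silencing RNAs 2 or more; inactive means the rest.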 This is one part of the list.
Assay: Resistance to Poly (ADP-Ribose) Polymerase inhibitor: Gene Identification via Genome-wide siRNA Screen
Settings: mouse BRCA2 R2336H ES cells, olaparib, CellTiter-Glo viability; stronger effect = higher value
Summary of the method: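 Genome-wide siRNA screen (3 siRNAs/gene, 20 nM) in mouse ES cells carrying hypomorphic BRCA2 R2336H; olaparib 500 nM added 48 h post-transfection, CellTiter-Glo viability 72 h later. Normalized to plate-median negative control; MAD z-scores, gene median, seed-adjusted.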

Sequence	z-score
GGAAACGUGGGCAUGAUCATT against Olfr944	inactive: -2.59
GGCCAUAUCUUAAAGUUAATT against Hcfc1r1	inactive: -0.196
GGCUCUGUGAAGAAAGUCATT against Cnn3	inactive: -0.0277
CGUAAAGUGACCUUAAGAATT against Lrrfip1	inactive: -0.283
GCCAUUGGAAUUUUGAAAUTT against 1700003M02Rik	inactive: 0.796
GGCUCUUCUAUUCUGAACUTT against Ly86	inactive: -0.389
CCAGAAUGUCACUGCCAGUTT against Zfy1	inactive: 0.0122
CGGUAAAUGGUCAAGAGUATT against Rheb	inactive: 0.395
GGCUGAAUCUUGAAAAUGATT against Cntnap1	inactive: 1.76
CCGUUGUCAUGUUUUAAAGTT against Prdx6	inactive: 0.15
GGCCUAUUUGUUUUUGAAATT against Mthfd2	inactive: 0.0408
GGUGGUCUGAGAAAUACUCTT against 0610037L13Rik	inactive: 0.331
GCCUUGUAUACACUUGUUATT against Mrps27	inactive: 0.885
CCUGGAGAGUGAUACGUUCTT against 0610012A11Rik	inactive: -0.453
GGGAAAGAAAGUCAGCUCUTT against Ptprf	inactive: 0.864
GGAGUGAAAUCUCCUAAAATT against Tmsb10	inactive: -0.871
GGAUCCUGAAAUCAAAACUTT against Mbl1	inactive: 0.479
GGGUCAAUCAUGAAUGUUUTT against Pak4	inactive: -1.4
GGUCCCGGAACGGUACUUUTT against Paqr3	inactive: -0.788
GCUGUUCAUAUAUCUUGCUTT against Olfr1386	inactive: 0.621
CCAUAGCAGGGAAGAUUUUTT against Kcnd2	inactive: -0.591
GGCAAGAGAAUUCAGAUCUTT against Slc5a1	inactive: 2.6
GGUCACACUGGUGAAGUCUTT against Tjp1	inactive: 0.395

Sequence	z-score
GGAUGAGAAUAGCUAGAAATT against Zfp553	inactive: -0.0959
GGAAGCUGAAAGAAGGAGATT against Mx1	inactive: 0.394
GGACAAGCUAAGCAUUGAGTT against Atp6ap1	inactive: -1.98
GCGACUGGCGCAACAAAAUTT against Sox18	inactive: 2.73
GGGACAGUUUUCGGACUUCTT against Edg6	inactive: 0.617
GGAUACUUUGACCAAGUCUTT against Irx6	inactive: -1.02
GCCAUUCCAAAGUAUUACCTT against Mrpl34	inactive: -0.567
GGUAUUCCUUUUUUGUAGCTT against Oact1	inactive: 1.95
GGUUACUUCAAAGACAAAGTT against 3110004H13Rik	inactive: 0.0757
GCUUGGAGUCGUAGUUUCUTT against F730031O20Rik	inactive: -0.36
GGAGCUAGAACUCAAUGAATT against Lrrn6a	inactive: 1.61
GCCAUGCCUUAAUCUUGGUTT against F730004D16Rik	inactive: -0.78
GGCUCAUGAGAAGACACACTT against Zbtb17	inactive: -0.726
GGAACUAAUGUGCAGGAGGTT against Suclg2	inactive: 1.31
GGAUAUCACCCACAAUAAATT against Vps28	inactive: -2.47
GCAUGUCGAGUUUGAUUUCTT against Wdr12	inactive: -1.27
CCACACGUUCCAUUUCUCGTT against 2310016C08Rik	inactive: 1.08
CGGACACACUUUGUUAUUATT against 4833420G17Rik	inactive: 1.87
GGAGGAUAUACACAACAGGTT against Wbp5	inactive: 0.752
GGGCUAUAUAUAUUUCCACTT against Asns	inactive: -2.88
GGAGAAAAGCUGACCUUUGTT against Gstm5	inactive: -2.35
CCCAGAAGAGACUAUACUGTT against Mylc2pl	inactive: -0.437
CGUACAUCUGUCCUACAUGTT against 2810441K11Rik	inactive: -1.53

As a working copy, some entries already given.
Sequence	z-score
CCUGGAGAGUGAUACGUUCTT against 0610012A11Rik	inactive: -0.453
GGGAAAGAAAGUCAGCUCUTT against Ptprf	inactive: 0.864
GGAGUGAAAUCUCCUAAAATT against Tmsb10	inactive: -0.871

Next records follow:

Sequence	z-score
CCUUAGUAUGUAUGUGGUATT against 4933403G14Rik	inactive: -0.0446
CGGCCAACUUUCAUUGAUCTT against Zfpn1a4	inactive: -0.319
GCCUAAACCUGAGUUAUAATT against Lrig1	inactive: 0.0302
GGUAGAGAGGAAUUCAUAATT against Lrp11	inactive: -2.56
GGUACCAUUCGUUCAAACCTT against 3830406C13Rik	inactive: -0.156
GCACCAUACUAGGAUCUGCTT against Slc24a5	inactive: -0.37
GGCAAAGCAAGCUAUAUCCTT against Blr1	inactive: 1.28
GGAUUCUCCAUUCUCAGUGTT against Tde2l	inactive: -1.03
GGUCAUUUGUUUUCAGGGATT against A330080J22Rik	inactive: -0.0644
GGAAGAGGUGGACAAGAUGTT against Gps2	inactive: -0.729
GGGCCACUUUCCAAUUCAATT against Tectb	inactive: 0.856
GUGGUUGUUUUCGUCCUUCTT against Olfr821	inactive: -0.835
GCUUCUGAAUAUCAGACGGTT against BC062109	inactive: 0.0847
CGGUGGAAUUCGUUAGAAGTT against Ireb2	inactive: -0.959
GGUAACUGACUAAUGGAAGTT against Tcl1b4	inactive: 0.187
CCAAUGAAACUUCUAGACUTT against Gjb2	inactive: 0.858
GCUUUUUAGGCAUUGGUAATT against Lif	inactive: 0.884
GGAUGUUGGAAGAAGGCUUTT against Kcna5	inactive: -0.361
GCAUUUCACCGUCAUGAACTT against BC055368	inactive: -0.127
GGAAGAAAGUGGCAUAGCCTT against Sirt7	inactive: 0.259
GGAGCAUAUACAACUCAGCTT against AV340375	inactive: -0.446

— PubChem BioAssay AID1347423 (Functional Genomics Laboratory (NCATS/FGL), 2020)
